Measurements reported in PubChem BioAssay AID1224826 (NIAID, 2016).
The deposit covers about 17,000 reagents; this is a part drawn at random. About 1,110 of all reagents (6.6%) count as active. 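Active means lowered or raised reporter signal; replicate intensities are raw and not normalised per plate.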 Further read-outs or replicates are left out here.

Purpose: 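Regulators of Tlr4 signalling leading to Tnf-alpha expression in macrophages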 (primary screen)
System: RAW264.7 G9 macrophages from mouse bearing reporters for p65 (GFP) and the Tnf promoter (mCherry)
Knock-down reagent: siRNA pool against mouse genes, 100 nM
Time to read-out: 16 h of LPS stimulation, after 2 days of siRNA transfection
Conditions: bacterial lipopolysaccharide (Salmonella minnesota R595), 10 ng/ml
Measurement: 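Nuclear mCherry signal of the Tnf promoter reporter measured by imaging after background removal, scaled to each plate median and turned into robust z-scores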
Reading the numbers: Tnf reporter robust z-score: higher = stronger Tnf promoter reporter signal after LPS
Rule for the call: 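a well counts as active at a score of -1.3 or below (Tlr4 knock-down control median) or above 3 (raised signal); controls and wells holding fewer than 50 cells are excluded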
Calls: active = Tnf reporter clearly lowered or raised; inactive = no clear change in Tnf reporter

For Fads2 (fatty acid desaturase 2), the entry reads Tnf reporter robust z-score -1.93; fewer than 50 cells in well enough cells in well; active. Chrm1 (cholinergic receptor, muscarinic 1, CNS) showed Tnf reporter robust z-score 0.07; fewer than 50 cells in well enough cells in well; inactive. With knock-down of Wnt4 (WNT family member 4) the results were Tnf reporter robust z-score -0.09; fewer than 50 cells in well enough cells in well; inactive. Against Fzd8 (frizzled class receptor 8), the values are Tnf reporter robust z-score 0.24; fewer than 50 cells in well enough cells in well; inactive. Knock-down of Nol9 (nucleolar protein 9) came out at: Tnf reporter robust z-score -0.21; fewer than 50 cells in well enough cells in well; inactive. For Rtel1 (regulator of telomere elongation helicase 1), the entry reads Tnf reporter robust z-score -1.17; fewer than 50 cells in well enough cells in well; inactive.

Against Exosc10 (exosome component 10), the entry reads Tnf reporter robust z-score -0.08; fewer than 50 cells in well enough cells in well; inactive. Against Pi15 (peptidase inhibitor 15) the deposit lists Tnf reporter robust z-score 0.86; fewer than 50 cells in well enough cells in well; inactive. Wap (whey acidic protein) scored Tnf reporter robust z-score 0.7; fewer than 50 cells in well enough cells in well; inactive. After knock-down of Nkx2-5 (NK2 homeobox 5), the record shows Tnf reporter robust z-score 0.08; fewer than 50 cells in well enough cells in well; inactive. Appbp2 (amyloid beta precursor protein binding protein 2) scored Tnf reporter robust z-score -0.07; fewer than 50 cells in well enough cells in well; inactive. Ift46 (intraflagellar transport 46) showed Tnf reporter robust z-score 2.02; fewer than 50 cells in well enough cells in well; inactive.

A run of entries taken from the entries so far:
Nkx2-5 (NK2 homeobox 5): Tnf reporter robust z-score = 0.08; fewer than 50 cells in well = enough cells in well; outcome = inactive
Appbp2 (amyloid beta precursor protein binding protein 2): Tnf reporter robust z-score = -0.07; fewer than 50 cells in well = enough cells in well; outcome = inactive
